Results taken from PMC10963238, “The bacterial division protein MinDE has an independent function in flagellation” (The Journal of Biological Chemistry, 2024).
Read-outs that look alike come from different tables or passages of the source. These are yes or no findings as the source states them, for the method shown. Some binding calls cover weakened binding; strength is not graded here.

Chains of the proteins cited; added tags and fusions are not shown.
UniProt P0AEM6: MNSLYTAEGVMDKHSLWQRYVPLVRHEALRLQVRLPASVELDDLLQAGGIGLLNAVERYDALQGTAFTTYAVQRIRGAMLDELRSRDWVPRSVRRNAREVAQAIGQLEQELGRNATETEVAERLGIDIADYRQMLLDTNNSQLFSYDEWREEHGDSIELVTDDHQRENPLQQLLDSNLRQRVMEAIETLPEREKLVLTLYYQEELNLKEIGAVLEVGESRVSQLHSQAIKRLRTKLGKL
UniProt P04949: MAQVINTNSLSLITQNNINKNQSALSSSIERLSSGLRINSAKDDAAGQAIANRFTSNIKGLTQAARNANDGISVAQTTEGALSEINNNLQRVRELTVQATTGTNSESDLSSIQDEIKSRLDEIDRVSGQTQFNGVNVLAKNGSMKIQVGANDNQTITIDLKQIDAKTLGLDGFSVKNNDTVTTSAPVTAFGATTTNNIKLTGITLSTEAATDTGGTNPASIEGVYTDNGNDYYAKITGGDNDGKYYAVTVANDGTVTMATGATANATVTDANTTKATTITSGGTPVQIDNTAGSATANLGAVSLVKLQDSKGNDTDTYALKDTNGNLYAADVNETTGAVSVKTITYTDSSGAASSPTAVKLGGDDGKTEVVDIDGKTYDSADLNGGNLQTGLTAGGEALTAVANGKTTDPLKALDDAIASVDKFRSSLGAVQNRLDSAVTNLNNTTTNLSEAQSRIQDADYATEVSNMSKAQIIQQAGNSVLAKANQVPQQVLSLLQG
UniProt P0AEZ3: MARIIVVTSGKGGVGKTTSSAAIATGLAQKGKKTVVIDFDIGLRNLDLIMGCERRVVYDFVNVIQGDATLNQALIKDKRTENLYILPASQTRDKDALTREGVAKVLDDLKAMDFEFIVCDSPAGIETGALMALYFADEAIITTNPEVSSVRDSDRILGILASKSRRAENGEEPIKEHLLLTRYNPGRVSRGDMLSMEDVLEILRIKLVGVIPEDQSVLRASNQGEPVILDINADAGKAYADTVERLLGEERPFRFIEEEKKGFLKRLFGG

T1: AtoC (Escherichia coli K-12) (UniProt Q06065)
T1 sequence: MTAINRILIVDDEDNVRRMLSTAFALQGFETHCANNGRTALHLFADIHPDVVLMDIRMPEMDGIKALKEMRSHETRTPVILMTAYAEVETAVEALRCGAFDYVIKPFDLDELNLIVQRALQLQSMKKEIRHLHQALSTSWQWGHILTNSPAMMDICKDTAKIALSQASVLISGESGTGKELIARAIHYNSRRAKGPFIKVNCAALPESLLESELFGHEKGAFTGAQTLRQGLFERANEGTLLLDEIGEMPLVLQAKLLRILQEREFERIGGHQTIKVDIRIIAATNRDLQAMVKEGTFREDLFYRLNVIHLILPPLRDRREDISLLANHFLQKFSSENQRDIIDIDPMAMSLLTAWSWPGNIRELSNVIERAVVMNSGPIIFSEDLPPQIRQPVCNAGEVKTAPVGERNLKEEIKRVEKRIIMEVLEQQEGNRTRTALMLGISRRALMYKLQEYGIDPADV

T2: AtoS (Escherichia coli K-12) (UniProt Q06067)
T2 sequence: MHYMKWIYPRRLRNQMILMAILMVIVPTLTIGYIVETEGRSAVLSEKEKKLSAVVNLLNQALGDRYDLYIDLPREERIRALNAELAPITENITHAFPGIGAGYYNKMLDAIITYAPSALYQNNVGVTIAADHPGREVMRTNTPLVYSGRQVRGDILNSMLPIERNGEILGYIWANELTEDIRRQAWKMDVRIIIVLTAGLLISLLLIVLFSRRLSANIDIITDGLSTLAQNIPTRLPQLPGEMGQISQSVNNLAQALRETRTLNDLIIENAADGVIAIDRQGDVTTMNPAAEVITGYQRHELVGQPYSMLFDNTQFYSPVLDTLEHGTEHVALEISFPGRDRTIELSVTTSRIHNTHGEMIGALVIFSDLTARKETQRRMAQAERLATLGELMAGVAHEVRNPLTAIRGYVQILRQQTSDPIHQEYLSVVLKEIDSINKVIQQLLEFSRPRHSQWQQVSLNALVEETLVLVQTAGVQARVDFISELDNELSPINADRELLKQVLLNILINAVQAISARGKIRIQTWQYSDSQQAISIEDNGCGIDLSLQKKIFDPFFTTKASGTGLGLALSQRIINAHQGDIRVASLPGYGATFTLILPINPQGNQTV

T3: FlhC (Escherichia coli) (UniProt P0ABY7)
T3 sequence: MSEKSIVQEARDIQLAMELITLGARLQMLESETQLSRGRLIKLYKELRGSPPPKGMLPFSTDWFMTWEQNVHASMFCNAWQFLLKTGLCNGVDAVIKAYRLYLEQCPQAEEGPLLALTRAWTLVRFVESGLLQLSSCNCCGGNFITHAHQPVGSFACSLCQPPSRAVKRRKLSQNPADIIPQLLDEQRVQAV

T4: FlhD (Escherichia coli) (UniProt P0A8S9)
T4 sequence: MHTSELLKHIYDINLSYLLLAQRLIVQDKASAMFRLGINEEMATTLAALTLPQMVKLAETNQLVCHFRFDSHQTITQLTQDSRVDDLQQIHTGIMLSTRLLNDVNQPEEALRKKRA


Legend:
Test in all cases: two-hybrid; HIS3 reporter; yeast strain HFY7c cotransformed with pGAD424 (GAL4-AD) and pGBT9 (GAL4-BD) fusions; spotted on -Leu-Trp-His plates without and with 3-AT, 30 °C, 3 to 4 days
[1] = biological target: T1, AtoC (Escherichia coli K-12)
[2] = biological target: T2, AtoS (Escherichia coli K-12)
[3] = biological target: T3, FlhC (Escherichia coli)
[4] = biological target: T4, FlhD (Escherichia coli)
[5] = biological target: FliA (Escherichia coli) (UniProt P0AEM6)
[6] = biological target: FliC (Escherichia coli) (UniProt P04949)
[7] = biological target: T1, AtoC (Escherichia coli K-12); remark: listed apart in the source
[8] = biological target: T2, AtoS (Escherichia coli K-12); remark: listed apart in the source
[9] = biological target: T3, FlhC (Escherichia coli); remark: listed apart in the source
[10] = biological target: T4, FlhD (Escherichia coli); remark: listed apart in the source
[11] = biological target: FliA (Escherichia coli) (UniProt P0AEM6); remark: listed apart in the source
[12] = biological target: FliC (Escherichia coli) (UniProt P04949); remark: listed apart in the source

Molecule | binding [1] | binding [2] | binding [3] | binding [4] | binding [5] | binding [6] | binding [7] | binding [8] | binding [9] | binding [10] | binding [11] | binding [12]
MinD (from UniProt P0AEZ3 1-270) | no binding | binds | no binding | no binding | no binding | no binding |  |  |  |  |  | 
MinE (from UniProt P0A734 1-88) | no binding | no binding | no binding | no binding | no binding | no binding |  |  |  |  |  | 
MinC (protein, UniProt P18196 1-231) MSNTPIELKGSSFTLSVVHLHEAEPKVIHQALEDKIAQAPAFLKHAPVVLNVSALEDPVNWSAMHKAVSATGLRVIGVSGCKDAQLKAEIEKMGLPILTEGKEKAPRPAPTPQAPAQNTTPVTKTRLIDTPVRSGQRIYAPQCDLIVTSHVSAGAELIADGNIHVYGMMRGRALAGASGDRETQIFCTNLMAELVSIAGEYWLSDQIPAEFYGKAARLQLVENALTVQPLN |  |  |  |  |  |  | no binding | no binding | no binding | no binding | no binding | no binding
AtoS (protein, UniProt Q06067 1-608) MHYMKWIYPRRLRNQMILMAILMVIVPTLTIGYIVETEGRSAVLSEKEKKLSAVVNLLNQALGDRYDLYIDLPREERIRALNAELAPITENITHAFPGIGAGYYNKMLDAIITYAPSALYQNNVGVTIAADHPGREVMRTNTPLVYSGRQVRGDILNSMLPIERNGEILGYIWANELTEDIRRQAWKMDVRIIIVLTAGLLISLLLIVLFSRRLSANIDIITDGLSTLAQNIPTRLPQLPGEMGQISQSVNNLAQALRETRTLNDLIIENAADGVIAIDRQGDVTTMNPAAEVITGYQRHELVGQPYSMLFDNTQFYSPVLDTLEHGTEHVALEISFPGRDRTIELSVTTSRIHNTHGEMIGALVIFSDLTARKETQRRMAQAERLATLGELMAGVAHEVRNPLTAIRGYVQILRQQTSDPIHQEYLSVVLKEIDSINKVIQQLLEFSRPRHSQWQQVSLNALVEETLVLVQTAGVQARVDFISELDNELSPINADRELLKQVLLNILINAVQAISARGKIRIQTWQYSDSQQAISIEDNGCGIDLSLQKKIFDPFFTTKASGTGLGLALSQRIINAHQGDIRVASLPGYGATFTLILPINPQGNQTV |  |  |  |  |  |  |  |  | no binding | no binding |  | 
AtoC (protein, UniProt Q06065 1-461) MTAINRILIVDDEDNVRRMLSTAFALQGFETHCANNGRTALHLFADIHPDVVLMDIRMPEMDGIKALKEMRSHETRTPVILMTAYAEVETAVEALRCGAFDYVIKPFDLDELNLIVQRALQLQSMKKEIRHLHQALSTSWQWGHILTNSPAMMDICKDTAKIALSQASVLISGESGTGKELIARAIHYNSRRAKGPFIKVNCAALPESLLESELFGHEKGAFTGAQTLRQGLFERANEGTLLLDEIGEMPLVLQAKLLRILQEREFERIGGHQTIKVDIRIIAATNRDLQAMVKEGTFREDLFYRLNVIHLILPPLRDRREDISLLANHFLQKFSSENQRDIIDIDPMAMSLLTAWSWPGNIRELSNVIERAVVMNSGPIIFSEDLPPQIRQPVCNAGEVKTAPVGERNLKEEIKRVEKRIIMEVLEQQEGNRTRTALMLGISRRALMYKLQEYGIDPADV |  |  |  |  |  |  |  |  | no binding | no binding |  | 
